Screening data, single-dose tests

The chains behind the UniProt entries cited, without tags or fusion partners.
UniProt I6X8D2, whole entry: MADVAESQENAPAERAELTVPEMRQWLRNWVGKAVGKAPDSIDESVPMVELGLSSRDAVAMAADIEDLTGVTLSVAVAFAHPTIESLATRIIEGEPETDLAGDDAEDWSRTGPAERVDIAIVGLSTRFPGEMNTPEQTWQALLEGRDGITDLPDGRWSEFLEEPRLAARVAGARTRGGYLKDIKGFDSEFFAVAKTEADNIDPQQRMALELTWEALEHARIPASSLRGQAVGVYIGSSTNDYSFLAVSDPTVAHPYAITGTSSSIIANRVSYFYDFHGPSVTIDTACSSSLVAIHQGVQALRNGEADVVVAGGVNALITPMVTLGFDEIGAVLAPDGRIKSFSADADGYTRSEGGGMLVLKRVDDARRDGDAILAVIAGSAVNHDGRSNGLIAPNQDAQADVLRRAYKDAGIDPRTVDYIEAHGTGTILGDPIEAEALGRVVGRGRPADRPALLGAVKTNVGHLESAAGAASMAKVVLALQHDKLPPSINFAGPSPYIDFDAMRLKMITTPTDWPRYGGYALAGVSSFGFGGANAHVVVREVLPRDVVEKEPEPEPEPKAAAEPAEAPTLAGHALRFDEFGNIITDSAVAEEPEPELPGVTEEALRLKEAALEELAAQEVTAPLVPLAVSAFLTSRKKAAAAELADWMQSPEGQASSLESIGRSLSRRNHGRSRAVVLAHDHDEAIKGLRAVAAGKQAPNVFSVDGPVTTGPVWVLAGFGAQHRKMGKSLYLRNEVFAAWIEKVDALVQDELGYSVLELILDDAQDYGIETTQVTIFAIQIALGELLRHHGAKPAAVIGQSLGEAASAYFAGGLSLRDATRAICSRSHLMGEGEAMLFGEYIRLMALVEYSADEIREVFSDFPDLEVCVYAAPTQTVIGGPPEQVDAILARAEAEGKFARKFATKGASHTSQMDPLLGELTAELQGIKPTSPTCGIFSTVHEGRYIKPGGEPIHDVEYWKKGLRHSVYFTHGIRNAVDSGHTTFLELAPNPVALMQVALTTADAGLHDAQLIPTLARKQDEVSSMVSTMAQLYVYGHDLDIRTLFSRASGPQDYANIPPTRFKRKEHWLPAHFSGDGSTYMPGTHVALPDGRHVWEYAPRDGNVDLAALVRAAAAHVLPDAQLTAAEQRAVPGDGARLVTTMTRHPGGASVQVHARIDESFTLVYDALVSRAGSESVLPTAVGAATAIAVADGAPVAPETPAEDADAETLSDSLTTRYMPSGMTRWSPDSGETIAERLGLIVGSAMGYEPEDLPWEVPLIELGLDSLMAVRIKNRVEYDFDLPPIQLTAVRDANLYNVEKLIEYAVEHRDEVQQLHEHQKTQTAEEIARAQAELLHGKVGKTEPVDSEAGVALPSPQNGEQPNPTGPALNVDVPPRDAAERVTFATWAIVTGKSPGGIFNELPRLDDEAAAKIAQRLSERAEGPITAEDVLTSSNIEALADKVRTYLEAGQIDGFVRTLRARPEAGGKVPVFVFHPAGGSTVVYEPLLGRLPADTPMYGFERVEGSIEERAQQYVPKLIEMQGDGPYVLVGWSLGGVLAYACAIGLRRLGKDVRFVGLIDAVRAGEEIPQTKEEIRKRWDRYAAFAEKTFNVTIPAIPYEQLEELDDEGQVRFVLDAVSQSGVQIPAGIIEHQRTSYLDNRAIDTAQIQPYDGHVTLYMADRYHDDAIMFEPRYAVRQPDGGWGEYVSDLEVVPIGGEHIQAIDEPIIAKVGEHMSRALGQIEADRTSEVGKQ

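Polyketide synthase Pks13, Mycobacterium tuberculosis (UniProt I6X8D2). Enzyme assay of the thioesterase domain of polyketide synthase 13; the read-out is not stated. Tested at 30 µM. The record gives no direction; the compounds picked for IC50 retests had high values, so higher reads as stronger inhibition. Of about 67,000 compounds tested this way, about 300 (0.46%) reached 50% or more in at least one test.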

Results are given as percent effect.
How 0% and 100% were set is not recorded. Most values in the screen are low, and negative values occur.
Compounds were drawn at random from those tested, without regard to their results.

{"smiles": "O=C(NC1CC1)N1CCc2ccc(=O)n(CCN3CCCC3)c2CC1", "effect": -44.15}
{"smiles": "CCN(Cc1nc(Cc2ccccc2)no1)C1CC1", "effect": -8.429}
{"smiles": "COc1ccc(F)cc1C(C)NC(=O)Cn1ccc(=O)n(C)c1=O", "stereo": "centres undefined", "effect": -4.83}
{"smiles": "O=C(c1ccccn1)N1C[C@@H]2CC[C@H](C1)N(C(=O)CCc1cccs1)C2", "effect": -5.352}
{"smiles": "CCN(Cc1nnnn1C1CC1)c1cc(C)ccc1C", "effect": -2.288}
{"smiles": "CC(C)CCNC(=O)C1CCN(c2ccc3nnc(C(C)C)n3n2)CC1", "effect": -43.9}
{"smiles": "CN1CCCN(c2cnn(Cc3ccc(C(C)(C)C)cc3)c(=O)c2)CC1", "effect": -14.78}
{"smiles": "CC(C)(C)CN(CCC#N)C(=O)Cc1ccc(-n2cnnn2)cc1", "effect": -16.15}
{"smiles": "CN(Cc1nnn(CC2CCC2)n1)C(=O)c1ccccc1", "effect": -34.55}
{"smiles": "COc1ccccc1OCc1cc(C(=O)N2[C@H](C)CC[C@@H]2C)n[nH]1", "effect": -8.226}
{"smiles": "CC(C)NC(=O)[C@@H]1CN(C)C[C@]12COc1ccc(F)cc1C2=O", "effect": 20.7}
{"smiles": "CC(C)C(C)NC(=O)CCN1C(=O)CCc2cc(F)ccc21", "stereo": "centres undefined", "effect": -14.18}
{"smiles": "Cc1cc(C(=O)N2CC[C@H]3C[C@H](c4ccncn4)O[C@@H]3C2)c(C)[nH]1", "effect": -9.879}
{"smiles": "O=C(NCCC(=O)N1CCCc2ccccc21)c1cc(F)cc(F)c1", "effect": -9.011}
{"smiles": "CN(CCOc1ccc(F)cc1)S(=O)(=O)c1cnn(C)c1", "effect": -22.8}
{"smiles": "Cc1noc(NCc2cn(C)nc2-c2ccncc2)n1", "effect": -3.761}
{"smiles": "O=C(c1cc(COc2ccc3c(c2)OCO3)[nH]n1)N1CCCO1", "effect": -20.87}
{"smiles": "NS(=O)(=O)CCN1CCN(c2cc(F)ccc2F)CC1", "effect": 11.07}
{"smiles": "Cc1noc(C)c1CNC(=O)N1CCC(C(O)c2ccccc2)CC1", "stereo": "centres undefined", "effect": -4.46}
{"smiles": "Cc1ncc(CN2CCOC(c3ccc(-c4cnn(C)c4)cn3)C2)s1", "stereo": "centres undefined", "effect": 25.69}
{"smiles": "Cc1cnn(CC2CN(CCS(=O)(=O)C(F)(F)F)CCO2)c1", "stereo": "centres undefined", "effect": 4.763}
{"smiles": "Cc1noc(C(C)N2CCN(CCOCC(F)(F)F)CC2)n1", "stereo": "centres undefined", "effect": -39.46}
{"smiles": "COCC(=O)N1CCC(c2nccnc2Oc2cccnc2C)CC1", "effect": -8.632}
{"smiles": "Cc1nc[nH]c1CN1CCN(C(=O)CN2CCCC2)[C@H]2CS(=O)(=O)C[C@H]21", "effect": -26.9}
{"smiles": "CCS(=O)(=O)N(C)C1CCN(c2cccc(F)c2C(C)=O)CC1", "effect": -5.028}
{"smiles": "CC(NCc1nnc2n1CCCC2)c1nc(C(C)(C)C)no1", "stereo": "centres undefined", "effect": -14.16}
{"smiles": "COc1cc(C(=O)NCCCc2ccccc2)on1", "effect": -41.17}
{"smiles": "CNc1cncc(C2CCCN2C(=O)c2ccc3nc(C)[nH]c3c2)n1", "stereo": "centres undefined", "effect": 42.05}
{"smiles": "CC(O)CC(C)(C)CNS(=O)(=O)c1cccc(Cl)c1C#N", "stereo": "centres undefined", "effect": -11.71}
{"smiles": "CCc1cc(CNC(=O)c2cc(NC(=O)C(C)C)ccc2Cl)[nH]n1", "effect": -0.122}
{"smiles": "CC(C)c1noc(C(C)N2CCN(CCO)CC2)n1", "stereo": "centres undefined", "effect": -8.512}
{"smiles": "CCC(CC)c1cc(C(=O)N2CCN(C(C)C(N)=O)CC2)on1", "stereo": "centres undefined", "effect": -27.97}
{"smiles": "CCn1c(C2CCCNC2)nn(CCn2cncn2)c1=O", "stereo": "centres undefined", "effect": -2.862}
{"smiles": "O=C(Nc1ccccc1OCCc1ccccn1)NC1CCOCC1", "effect": -3.626}
{"smiles": "Cc1ccc(C(=O)N2CCCCC2CN(C)C)cc1", "stereo": "centres undefined", "effect": -3.657}
{"smiles": "Cn1ccc(-c2cc(C(=O)N3CCOCC3)c3ccccn23)n1", "effect": -2.5}
{"smiles": "CC(=O)c1cc(CN2C[C@@H](CN3CCCC3)[C@@H](CO)C2)n(C)c1", "effect": -41.55}
{"smiles": "CC(O)c1cccc(N2CCC3(CCC(=O)N(C4CCCC4)C3)CC2)n1", "stereo": "centres undefined", "effect": 1.907}
{"smiles": "COc1ccc(C(=O)N2CCN(CCO)CC2)c(F)c1", "effect": -15.93}
{"smiles": "CC(C)(C)CC(=O)N1CSCC1C(=O)NC1=NCCS1", "stereo": "centres undefined", "effect": -6.174}
{"smiles": "CC(C)(C)NC(=O)c1ccccc1NC(=O)c1ccncc1", "effect": -14.05}
{"smiles": "CN(Cc1cccc(F)c1)C(=O)CS(=O)(=O)Cc1c(Cl)cccc1Cl", "effect": -17.61}
{"smiles": "CC(C)c1nc(CN2CCOC(CNc3cccnn3)C2)cs1", "stereo": "centres undefined", "effect": -2.297}
{"smiles": "CNC(=O)[C@@H]1C[C@@H](NC(=O)c2cn(C)nc2C)CN1Cc1sccc1C", "effect": -3.424}
{"smiles": "Cc1nn(C)c(Cl)c1C1CCCN1Cc1ccc(C(N)=O)cc1", "stereo": "centres undefined", "effect": 7.316}
{"smiles": "COC(=O)c1ccc(NS(=O)(=O)c2cnc(NC(C)=O)s2)cc1", "effect": 0.3651}
{"smiles": "CO[C@H]1C[C@@H](O)C12CCN(C(=O)c1cccc(CCC(C)(C)O)c1)CC2", "effect": 24.36}
{"smiles": "Cc1cc(C(=O)N2CCCC(C)C2)ccc1NCc1nc(C(C)C)no1", "stereo": "centres undefined", "effect": -1.2}
{"smiles": "CC(=O)N1CCC[C@H]1C(=O)N(C)CCCOc1ccccc1", "effect": -26.33}
{"smiles": "O=S(=O)(C1CC1)N1CC[C@@H](OCC2CC2)[C@@H]1Cc1ccncc1", "effect": -24.67}
{"smiles": "CC(c1nc(C(C)(C)C)no1)S(=O)(=O)CC(=O)N1CCCC1", "stereo": "centres undefined", "effect": -33.36}
{"smiles": "Cc1cccc(CN2CCOCC3(CCN(C4CCOCC4)C3)C2)c1", "stereo": "centres undefined", "effect": -14.29}
{"smiles": "O=C(C1CC=CC1)N1CC[C@H]2[C@@H]1CCC(=O)N2c1ccccc1", "effect": -31.17}
{"smiles": "C=C(C)C(=O)N1CCC(C(=O)c2cc(C)cnc2N)CC1", "effect": -13.65}

The last 6 entries again:

{"smiles": "CC(=O)N1CCC[C@H]1C(=O)N(C)CCCOc1ccccc1", "effect": -26.33}
{"smiles": "O=S(=O)(C1CC1)N1CC[C@@H](OCC2CC2)[C@@H]1Cc1ccncc1", "effect": -24.67}
{"smiles": "CC(c1nc(C(C)(C)C)no1)S(=O)(=O)CC(=O)N1CCCC1", "stereo": "centres undefined", "effect": -33.36}
{"smiles": "Cc1cccc(CN2CCOCC3(CCN(C4CCOCC4)C3)C2)c1", "stereo": "centres undefined", "effect": -14.29}
{"smiles": "O=C(C1CC=CC1)N1CC[C@H]2[C@@H]1CCC(=O)N2c1ccccc1", "effect": -31.17}
{"smiles": "C=C(C)C(=O)N1CCC(C(=O)c2cc(C)cnc2N)CC1", "effect": -13.65}

Source: ChEMBL document CHEMBL3988442, “University of Dundee, Small-Polar-MMV Screening Library” (2021).